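Genome-wide siRNA knockdown in TC32 Ewing sarcoma cells, comparing luciferase light from an NR0B1-promoter reporter with a CMV-promoter reporter 48 hours after transfection. Each siRNA was applied at 20 nM. A z-score of the log NR0B1-over-CMV signal, less the median of siRNAs with the same seed; more negative means a stronger specific loss of the NR0B1 reporter.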

This is part of the screen; most of the strongest results are not listed here. Sequences are the guide (antisense) strand, without overhang.

siRNA: UUUAGUUUGUUGGUCAUCA
gene: GPC6
seed-corrected z-score: 0.4267

siRNA: UUCAUCGUCAACUACUUCC
gene: SHQ1
seed-corrected z-score: -0.7256

siRNA: AACUGAAGUAUUGCAUCCC
gene: SLC25A51
seed-corrected z-score: 0.1959

siRNA: AUCUGGAUCACCUUGCAAC
gene: TSEN15
seed-corrected z-score: 1.855

siRNA: UACGGUUAGGGAUGAACUC
gene: ZNF568
seed-corrected z-score: -0.2391

siRNA: UCAUGAUGGGCUGUAAUGC
gene: SATB2
seed-corrected z-score: 0.5963

siRNA: AUCUUGUUGAUGGUCUUGC
gene: CHRNE
seed-corrected z-score: 0.4604

siRNA: UGUGAGGCAAAAAUGCUCU
gene: CCDC162P
seed-corrected z-score: -0.6434

siRNA: UUUUGUACUAAGGAUAUUU
gene: NOTCH2NL
seed-corrected z-score: -0.01278

siRNA: UGUUAGAGUAUUCACAUCC
gene: WDR48
seed-corrected z-score: 0.4591

siRNA: UUAAGGUACCGAACCAGGC
gene: SPICE1
seed-corrected z-score: -0.4946

siRNA: UCUUCGUAAUGUUCGGUUC
gene: C9
seed-corrected z-score: 0.3947

siRNA: ACAGGAGUUGAUCUGGUCC
gene: C9orf16
seed-corrected z-score: -0.4858

siRNA: UCGCGAUGCAUUGUAACUC
gene: SREK1
seed-corrected z-score: 0.4793

siRNA: UCUGGAAUUAGUGAGAAUG
gene: OR51F1
seed-corrected z-score: -1.196

siRNA: UACGAAAAGAAUGAAGGCC
gene: ZNF587
seed-corrected z-score: 0.1393

siRNA: AUAGUUUGUCUUUCCGAUG
gene: ZNF699
seed-corrected z-score: -0.001162

siRNA: AUCUGAAGCAUAAAGUGCC
gene: PDE7B
seed-corrected z-score: -0.6725

siRNA: UUCGUAUUUAAACUUGUAG
gene: BMP10
seed-corrected z-score: 0.3745

siRNA: AUCGGGAACCUUGUCACUG
gene: C7orf50
seed-corrected z-score: -0.4859

siRNA: UUCUCCAGCAGGUAAACCU
gene: RIMS3
seed-corrected z-score: 0.09544

siRNA: UUGGUGAUGAUGUCUAGGC
gene: TRIT1
seed-corrected z-score: 0.5057

siRNA: UCUCCGAGAAACAAAAGGG
gene: ERBB4
seed-corrected z-score: 0.2094

siRNA: UAAUGGGAAGAGUAGAAAC
gene: PPHLN1
seed-corrected z-score: -1.613

siRNA: UUCCGAUACAGCAUCAAGC
gene: MSH3
seed-corrected z-score: -0.03805

siRNA: UUCGGUACAAAUGGAGGCC
gene: SOD3
seed-corrected z-score: 0.7276

siRNA: UCGCUUGAAAGUAGCUUCC
gene: TAGAP
seed-corrected z-score: -0.5632

siRNA: UAACGUAAACAGAGUUUCC
gene: BTAF1
seed-corrected z-score: -0.00875

siRNA: AACUUAUGAAGGUCUGGGC
gene: APH1B
seed-corrected z-score: -0.2638

siRNA: UGGUAUUUCGUCUUUUAGC
gene: RPL37
seed-corrected z-score: -1.607

siRNA: AAGUAGAUAACGAUGAUGG
gene: SLC5A1
seed-corrected z-score: -0.1879

siRNA: AUGCGUAUAGUGGAGGUCC
gene: PCDHB9
seed-corrected z-score: -0.8787

siRNA: UUCUUGAUGCGUAGGAGCC
gene: USH1C
seed-corrected z-score: -0.06128

siRNA: UUGGUGUAGAGAGAAGAUA
gene: PLA2G4C
seed-corrected z-score: -0.3786

siRNA: AAAUUAAACAAUUCUGUUC
gene: LOC642335
seed-corrected z-score: 0.2343

siRNA: UCUCUUAUCAUGUGAGGUG
gene: RAPGEF4
seed-corrected z-score: -0.2992

siRNA: UCAUGGUCCACACAUCUUU
gene: GPRIN2
seed-corrected z-score: -1.126

siRNA: AUCAUCGUAAGUCCAGUCC
gene: CHID1
seed-corrected z-score: 0.1634

siRNA: UGACCUUCGAGUGCUGAUC
gene: HNF4A
seed-corrected z-score: -0.2915

siRNA: UAGCUUCUCAUUUAUGAGC
gene: PCDHB16
seed-corrected z-score: -0.5871

siRNA: UUUCAAUCAGGUAUCUCUC
gene: IST1
seed-corrected z-score: -0.5096

siRNA: UGUUUGUAUAUUCAGCUAC
gene: AFF2
seed-corrected z-score: 0.1467

siRNA: UGCUUAUUGAAGAAAUACG
gene: MTX2
seed-corrected z-score: 0.3447

siRNA: UGGAGUAAACCGUAUUUGC
gene: SLAMF7
seed-corrected z-score: -0.2272

siRNA: UCAUGUCCAAUUUGCAGGG
gene: SPINT4
seed-corrected z-score: -0.5723

siRNA: UGUUGUACAGGAUAUACUC
gene: CTSH
seed-corrected z-score: -0.3443

siRNA: AAUGUUACCUCCACGAGCC
gene: VCP
seed-corrected z-score: 0.02667

siRNA: UUAUUGUAGAAGACAUAUC
gene: ZNF280A
seed-corrected z-score: 0.4411

siRNA: AGAGGAAUGUGUCUGCCCU
gene: SLC22A31
seed-corrected z-score: -0.3379

Once more, the final 4:

siRNA	gene	seed-corrected z-score
UGUUGUACAGGAUAUACUC	CTSH	-0.3443
AAUGUUACCUCCACGAGCC	VCP	0.02667
UUAUUGUAGAAGACAUAUC	ZNF280A	0.4411
AGAGGAAUGUGUCUGCCCU	SLC22A31	-0.3379

Data taken from PubChem BioAssay AID1159506, deposited by NCATS (2015).